The values that follow come from patent publication US6627772B2, “Preparation of N-[2-(carboxymethoxy) ethyl]-N-(carboxymethyl) glycine” (The Dow Chemical Company, priority 1999, dated 2003).

This series has as its system standardized sludge containing municipal waste treatment plant organisms. As to the kind of experiment: ASTM D2667 semi-continuous activated sludge biodegradability test (loss of chelation followed by copper titration). To be noted: copper titration value, analysis daily.

Take `O=C(O)CN(CCN(CC(=O)O)CC(=O)O)CC(=O)O` [EDTA (std.), ethylenediaminetetraacetate, reference compound]: the “Time for greater than 80% loss of chelation” value is “greater than 40 days”.
